The exact form of at least one protein or probe is not confirmed. For part of these data: Negatives hold for the conditions tested. At least one verdict was read from the data and is not stated in words by the source. For part of these data: Where a protein sequence is shown, tags need not be part of it.
What was measured:
[1] = target: T1, LvHSF1 (rLvHSF1-GST) (Litopenaeus vannamei) (UniProt X2D760); experiment: competition with a labelled probe; conditions: excess unlabeled probe2 reduces shift, EMSA: 10 ug recombinant protein, 20 fmol biotin probe, LightShift Chemiluminescent EMSA kit, 5% native PAGE, pH and temperature not stated
T1 sequence (looked up, limits assumed): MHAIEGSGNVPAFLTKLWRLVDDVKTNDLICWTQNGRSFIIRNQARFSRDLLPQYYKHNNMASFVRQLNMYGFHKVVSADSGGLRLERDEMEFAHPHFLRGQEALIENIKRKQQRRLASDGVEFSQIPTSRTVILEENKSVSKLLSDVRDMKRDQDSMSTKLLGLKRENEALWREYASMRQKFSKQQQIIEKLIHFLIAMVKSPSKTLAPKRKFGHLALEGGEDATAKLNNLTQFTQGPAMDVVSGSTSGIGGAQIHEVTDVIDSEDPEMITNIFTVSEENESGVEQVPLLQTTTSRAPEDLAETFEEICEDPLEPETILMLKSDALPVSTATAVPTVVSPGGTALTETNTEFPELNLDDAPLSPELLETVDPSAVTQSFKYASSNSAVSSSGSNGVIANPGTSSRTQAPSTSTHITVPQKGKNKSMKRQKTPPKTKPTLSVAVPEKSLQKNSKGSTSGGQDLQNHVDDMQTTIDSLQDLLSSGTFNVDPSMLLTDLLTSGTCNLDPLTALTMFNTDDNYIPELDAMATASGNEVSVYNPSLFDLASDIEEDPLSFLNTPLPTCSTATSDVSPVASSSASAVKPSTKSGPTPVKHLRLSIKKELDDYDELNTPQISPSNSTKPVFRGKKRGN

[2] = target: T1, LvHSF1 (rLvHSF1-GST) (Litopenaeus vannamei); experiment: EMSA; conditions: EMSA: 10 ug recombinant protein, 20 fmol biotin probe, LightShift Chemiluminescent EMSA kit, 5% native PAGE, pH and temperature not stated, label: biotin
[3] = test system: GST; experiment: EMSA; conditions: EMSA: 10 ug recombinant protein, 20 fmol biotin probe, LightShift Chemiluminescent EMSA kit, 5% native PAGE, pH and temperature not stated

Q: Does “GTTGGGATTTCCATGATGACTTTTCGAGGAATTAGTGGCTGCGTG (double strand) [SWD-Probe2]” bind [1]?
A: binds

Q: Does “GTTGGGATTTCCATGATGGATTGGCTCGCCATTAGTGGCTGCGTG (double strand) [Mut-SWD-Probe2]” bind [2]?
A: no binding

Q: Does “TACCACTAGGACTTTCTATAGAACCATCTTTGCTTCACTATAACA (double strand) [SWD-Probe1]” bind [3]?
A: no binding

— publication PMC13086497, “Heat shock factor regulation of antimicrobial peptides expression suggests a conserved defense mechanism induced by febrile temperature in arthropods”
